The values below come from patent US20170081382A1.

Amino acid sequences for entries named in this document (tags omitted). Residues count along the entry.
UniProt P01589, residues 22-272: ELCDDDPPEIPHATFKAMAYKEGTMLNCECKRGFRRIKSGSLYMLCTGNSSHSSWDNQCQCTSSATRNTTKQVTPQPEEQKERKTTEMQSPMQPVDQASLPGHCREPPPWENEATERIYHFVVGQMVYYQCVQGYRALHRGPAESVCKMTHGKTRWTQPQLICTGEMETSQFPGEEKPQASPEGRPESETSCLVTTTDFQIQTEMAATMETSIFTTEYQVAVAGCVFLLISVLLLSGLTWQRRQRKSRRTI

These are yes or no findings as the source states them, for the method shown. Some entries that bind do so weakly or less than the wild type. Tags and fused reporters may be left off the sequences shown.

The test deals with CD25 (IL-2Rα) on the surface of activated T cells (UniProt P01589). As to the kind of experiment: binding to cell surface CD25; method not detailed.

B1: IL-2 mutein haD5 fused to the amino terminus of Fc, separated by a GGGGS linker (Fc fusion, not shown: a dimerising Fc or GST; small tags and cut ends)
chain: APTSSSTKKTQLQLQNLLLDLQMILNGISNHKNPRLARMLTFKFYMPEKATELKHLQCLEEELKPLEEALRLAPSKNFHLRPRDLISDINVIVLELKGSETTFMCEYADETATIVEFLNRWITFSQSIISTLTGGGGS
With B1, the binding result was “binds”.
